# According to paper PMC7819943, “Rice protein-binding microarrays: a tool to detect cis-acting elements near promoter regions in rice”:
# Protein sequences, listed by entry. Tags and fused reporters are not part of them.
# UniProt Q0JBA9, entry or part of it: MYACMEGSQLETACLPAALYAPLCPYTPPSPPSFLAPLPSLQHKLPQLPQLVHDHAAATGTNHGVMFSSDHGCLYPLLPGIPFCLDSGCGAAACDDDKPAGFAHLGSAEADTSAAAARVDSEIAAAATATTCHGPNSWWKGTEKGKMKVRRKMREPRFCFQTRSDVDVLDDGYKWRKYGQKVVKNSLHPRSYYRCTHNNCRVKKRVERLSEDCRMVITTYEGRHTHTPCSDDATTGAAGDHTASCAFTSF
# The list shows a part of the results.
# Target: OsWRKY34 (Oryza sativa, UniProt Q0JBA9 1-250)
# Experiment: protein-binding microarray (RPBM); PBS, 2% BSA, 51.3 ng/ul salmon testes DNA, 50 uM zinc acetate, 200 nM TF, 25 C, 1 h; high values mean tight binding
# Settings: protein: recombinant; tags: N-terminal polyhistidine and DsRed monomer fusion (pET32a); label: CyDye5-dUTP incorporated in the synthesized complementary strand; 3' TTTTT single-stranded linker to array surface; dsDNA, one strand shown
# Summary of the method: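 Binding signal here means per-feature fluorescence intensity in arbitrary units. The values were read on an Axon 4000B scanner after a custom Agilent array, double-stranded by primer extension with Cy5-dUTP, was incubated with 200 nM protein at 25 °C for 1 h in PBS with 2% BSA, salmon testes DNA and 50 µM zinc acetate, then washed. The proteins were transcription factors with an N-terminal polyhistidine tag and DsRed, expressed in E. coli BL21-CodonPlus and purified on Ni–NTA.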
row,Sequence,binding signal
1,CATATTGACTCACTCACTGCTATGGCATACTTACAATTATCGGAGTCACCTAGTGCAG,9000 fluorescence intensity (a.u.)
2,CTCTGCGTGGGTGCGACCTGTTCCGTGACAGATTTCGATGCGGAGTCACCTAGTGCAG,8160 fluorescence intensity (a.u.)
3,GAAATCCTCCGATCGAAATCATCGAACCGTCTCTTCTACACGGAGTCACCTAGTGCAG,8600 fluorescence intensity (a.u.)
4,TCTCGCCGCCATTGTCACGTCTCACGTGCGCGCCACCACCCGGAGTCACCTAGTGCAG,8970 fluorescence intensity (a.u.)
5,AACCTCTACTGCTCCATATATTTTCTTTCTGTCAGCCCATCGGAGTCACCTAGTGCAG,11200 fluorescence intensity (a.u.)
6,ATCGTCCACTCTCACAGTCTCACACGCGCTAAATTATCATCGGAGTCACCTAGTGCAG,14200 fluorescence intensity (a.u.)
7,CTGTCGTTGTTCTGCTAATTAATCTCGTAGCATTATTTACCGGAGTCACCTAGTGCAG,8190 fluorescence intensity (a.u.)
8,CCGCTTGATCTCCGGCGAAGCTCCTCTACCGCCGCCGGCGCGGAGTCACCTAGTGCAG,10000 fluorescence intensity (a.u.)
9,CCCACCGTCGAGCGCCACCAACCCGCCGCCACCGTGCGCCCGGAGTCACCTAGTGCAG,8240 fluorescence intensity (a.u.)
10,GTGTTTGTGGTGGGCGGCCTTGGAGGATTGTCACCACCGGCGGAGTCACCTAGTGCAG,9470 fluorescence intensity (a.u.)
11,TTTGTCTTTTCTTCTTTTTCTTGGCATAAGCCAGTCTGTCCGGAGTCACCTAGTGCAG,9680 fluorescence intensity (a.u.)
12,ACGATGAGGAAGATCTATGCCCTTGCCTCTATGTCATTAACGGAGTCACCTAGTGCAG,8920 fluorescence intensity (a.u.)
13,CATCCCATTGCCCGCACTCTCTCGCTCTCCCACTCGCACCCGGAGTCACCTAGTGCAG,8660 fluorescence intensity (a.u.)
14,TTCCTGTCATCATGATGCACGCGTGCATTGCTATTTACTACGGAGTCACCTAGTGCAG,8770 fluorescence intensity (a.u.)
15,ACGTTTCTATATATTTGGTATGAGCCCATATTTATCTTTGCGGAGTCACCTAGTGCAG,13400 fluorescence intensity (a.u.)
16,TCCCAAGATGCTGCCATGGCTGCCTGTTCGAGTCACTTGCCGGAGTCACCTAGTGCAG,9240 fluorescence intensity (a.u.)
17,TCTGTCATCTAGCGCCCGCGTTCACATCCTGACATCGCCTCGGAGTCACCTAGTGCAG,10400 fluorescence intensity (a.u.)
18,CTTTTTCCTTGCAATCGTGATTCTTTTTTTTTTCCCTTTTCGGAGTCACCTAGTGCAG,17400 fluorescence intensity (a.u.)
19,AGGTTGGTGATTCAGAGATGTCGAGACGTGTGTTCTTTTGCGGAGTCACCTAGTGCAG,9200 fluorescence intensity (a.u.)
20,CCTCTCTTTCTCTTCTCTCTACTAACGGTAATCACATGAGCGGAGTCACCTAGTGCAG,8110 fluorescence intensity (a.u.)
21,TCCTGCAACTGTTCTTGAGACTGGGTATGTTATCTTCAGCCGGAGTCACCTAGTGCAG,8380 fluorescence intensity (a.u.)

# As entered above.
# Value of TCCCAAGATGCTGCCATGGCTGCCTGTTCGAGTCACTTGCCGGAGTCACCTAGTGCAG under binding signal: 9240 fluorescence intensity (a.u.)
# Value of ACGTTTCTATATATTTGGTATGAGCCCATATTTATCTTTGCGGAGTCACCTAGTGCAG under binding signal: 13400 fluorescence intensity (a.u.)
# Value of CTTTTTCCTTGCAATCGTGATTCTTTTTTTTTTCCCTTTTCGGAGTCACCTAGTGCAG under binding signal: 17400 fluorescence intensity (a.u.)
# Value of CTCTGCGTGGGTGCGACCTGTTCCGTGACAGATTTCGATGCGGAGTCACCTAGTGCAG under binding signal: 8160 fluorescence intensity (a.u.)

# Later entries

row,Sequence,binding signal
1,AGCACGCACGCACACTTTACTCTCTCCTTTTTCCGATCGACGGAGTCACCTAGTGCAG,10100 fluorescence intensity (a.u.)
2,TGCTTTATACCAGACTAGCTGTGCCTCTTATCGTTGTTTCCGGAGTCACCTAGTGCAG,12200 fluorescence intensity (a.u.)
3,CGCTCTCGCCTGCAGTATTTGTTCCATTGCCGCGCACCACCGGAGTCACCTAGTGCAG,12900 fluorescence intensity (a.u.)
4,CAATTTTGTTTTTACAACTTTTTCACATGAGTTCATTTATCGGAGTCACCTAGTGCAG,8650 fluorescence intensity (a.u.)
5,CCTCCAACCTCGTGAGCTCCGCCTCCACCTCGCTGCTGCTCGGAGTCACCTAGTGCAG,8140 fluorescence intensity (a.u.)
6,AACTCTCTTATACTATCTTTACTCTAGCAACAAACTCAATCGGAGTCACCTAGTGCAG,8080 fluorescence intensity (a.u.)
7,TGTTCTTTGCAGTTGCTGTTTATTCATCTTGGCCAAGTGCCGGAGTCACCTAGTGCAG,8910 fluorescence intensity (a.u.)
8,GGACTTATTTTGCACCGGTTTTAACAGTTGAGGGACCTGTCGGAGTCACCTAGTGCAG,10300 fluorescence intensity (a.u.)
9,CGAACGGTTTAACATATTTAAAAAAGTCAACGGCGTCAAACGGAGTCACCTAGTGCAG,8310 fluorescence intensity (a.u.)
10,CATGAAAATTTTGGTGGGATAGGGATGGGGAATTGAGAAACGGAGTCACCTAGTGCAG,10400 fluorescence intensity (a.u.)
11,ATCAAAACTTTTCTGCACACATAAACTTTCAATTTTTTCGCGGAGTCACCTAGTGCAG,8930 fluorescence intensity (a.u.)
12,GTCGTACATCGGGTGGATATATGTTACTTCACATTTTTTTCGGAGTCACCTAGTGCAG,10000 fluorescence intensity (a.u.)
13,ATATAATTCCGTTGAACGGTCTTGCTTGTGCTTTGGATAACGGAGTCACCTAGTGCAG,8650 fluorescence intensity (a.u.)
14,GGGGACCGGTTGTATCTGGTTTTGGGGTTTAAGGACGAAACGGAGTCACCTAGTGCAG,10200 fluorescence intensity (a.u.)
15,CTTCCGACATCCGGTTAAACATCCGATACGACACCCCAAACGGAGTCACCTAGTGCAG,8040 fluorescence intensity (a.u.)
16,GCCCAATGCATCATTTCCTTCGTACGTTGCAATCTAGGCCCGGAGTCACCTAGTGCAG,9190 fluorescence intensity (a.u.)
17,AAATCAAAGCTATACTGTTGCATACCATATTTGTGGATACCGGAGTCACCTAGTGCAG,8650 fluorescence intensity (a.u.)
18,CGTCGGTGTAGCCTGCCGCCTCTAATGCCTTCCTCAGCACCGGAGTCACCTAGTGCAG,8470 fluorescence intensity (a.u.)
19,CCGGTCTCGTCGACATCGATCATTCTCGCTCCGCCCAGCCCGGAGTCACCTAGTGCAG,8310 fluorescence intensity (a.u.)
20,TCGTTAATTGTACTTCTTGTTTCTGAAACTTTCCGGAGACCGGAGTCACCTAGTGCAG,8150 fluorescence intensity (a.u.)
21,GCTGCTGTCTCACACTCTCTCTCTCCCCTCCCTTTTCGTCCGGAGTCACCTAGTGCAG,9670 fluorescence intensity (a.u.)

row,Sequence,binding signal
1,TAGGAGAATTTCTCACTCGTGAGTGGGTGTGGGTTTTCTACGGAGTCACCTAGTGCAG,12000 fluorescence intensity (a.u.)
2,AAGCCCGACGACGGCGCTTGGCGATGGGTGGGGAGAAGGCCGGAGTCACCTAGTGCAG,8730 fluorescence intensity (a.u.)
3,GTTTGACTTTTATAACACAATGGTATAATTTGAGTAAATGCGGAGTCACCTAGTGCAG,8400 fluorescence intensity (a.u.)
4,ATAGCCCGTCTTTGTTTAATTTCTATGAGCAGTCTACCCACGGAGTCACCTAGTGCAG,8980 fluorescence intensity (a.u.)
5,TTGGCTTTCTCTCTCTCTTTTTCTTTTTCTTTCTTTCTTTCGGAGTCACCTAGTGCAG,9580 fluorescence intensity (a.u.)
6,ACATCCTCTTTTCTTTTTCTTTTTAACGCATTGACATGACCGGAGTCACCTAGTGCAG,9870 fluorescence intensity (a.u.)
7,TCGCAGGTTCGAGACCTGCATGGGCCATTATTTTTTTTTTCGGAGTCACCTAGTGCAG,8100 fluorescence intensity (a.u.)
8,GCCACCACGCCGCCCTGCTGCTGCTGCCTCGGTTAAACGGCGGAGTCACCTAGTGCAG,8790 fluorescence intensity (a.u.)
9,CCTTTCCAAGTCGGTCGGGGTAGCTGGGTTGTCTCGCCGGCGGAGTCACCTAGTGCAG,12300 fluorescence intensity (a.u.)
10,TCCACCGCCGCCGATAACACCCAAGCCAAGCGCGGTCGCTCGGAGTCACCTAGTGCAG,11000 fluorescence intensity (a.u.)
11,GCCGATCGATCAATCGCCGCCGCCGTCTCCTCGTGTAACCCGGAGTCACCTAGTGCAG,8240 fluorescence intensity (a.u.)
12,CCGCACTCTATTATTGTATTGATTAGCTTGTGTCATTCGCCGGAGTCACCTAGTGCAG,8760 fluorescence intensity (a.u.)
13,AGTCCCAATCTACAACTTGCAATAAAAACCAGGCGATTACCGGAGTCACCTAGTGCAG,8640 fluorescence intensity (a.u.)
14,AGGAAGCATTTCCGTAACGGAACGCCTCATACTTGCTCTCCGGAGTCACCTAGTGCAG,8490 fluorescence intensity (a.u.)
15,TCCACTTACTTCTTCACTGCTCGCCATCATCTCCTTCTTTCGGAGTCACCTAGTGCAG,10100 fluorescence intensity (a.u.)
16,CTGCACCTGCTTGATCTCTTCTATGTCACTGTTCCTCTGACGGAGTCACCTAGTGCAG,10100 fluorescence intensity (a.u.)
17,TTTATACTCCTTCTGTTTCATATTATTTTTTTCTACTAGTCGGAGTCACCTAGTGCAG,8860 fluorescence intensity (a.u.)
18,AAATTGGAGGGTTGGGATCTTCTATTTTTCTTGGTTAACCCGGAGTCACCTAGTGCAG,10100 fluorescence intensity (a.u.)
19,GCTACATCCTACTACACCCTAGCTACACAACCTTTGTCCCCGGAGTCACCTAGTGCAG,9120 fluorescence intensity (a.u.)
20,TGGCTTATTGTACGTTATACATGCGCTATTTTTGCAAAAGCGGAGTCACCTAGTGCAG,8520 fluorescence intensity (a.u.)
21,CAAGCAATATCAAATCTTTTACCACGTTTACTACTGATCCCGGAGTCACCTAGTGCAG,8550 fluorescence intensity (a.u.)

row,Sequence,binding signal
1,CCGTCCCCGGAAACCCTAGGCACTGACCTCGCCGGAGATGCGGAGTCACCTAGTGCAG,8600 fluorescence intensity (a.u.)
2,TGAGCCCCGCTATGCTCACCTACCCCATATACGCGGCGCACGGAGTCACCTAGTGCAG,8330 fluorescence intensity (a.u.)
3,TCTTCCATCGTTGTCCGCTGTCACCGTCGCTGTTCGCCTTCGGAGTCACCTAGTGCAG,16300 fluorescence intensity (a.u.)
4,TCTCATCTCATTTGTTTTCGTTCAACGCTATCTTTAGTTACGGAGTCACCTAGTGCAG,13500 fluorescence intensity (a.u.)
5,CGCCACCCACCGCGCCCACAACACGCACGGTATATATACACGGAGTCACCTAGTGCAG,8110 fluorescence intensity (a.u.)
6,CGGAGGAAGGGGATTAGGGGAGGGATCGGATCTGGGGCGTCGGAGTCACCTAGTGCAG,11500 fluorescence intensity (a.u.)
7,CGTACTCCGTAGTTTTCTGGGTTAGCGAGCCTGTACCGATCGGAGTCACCTAGTGCAG,9060 fluorescence intensity (a.u.)
8,CGCGTTTCTCTCCTCTTTTCTCTCTCCTTCCTTGATCTCCCGGAGTCACCTAGTGCAG,9020 fluorescence intensity (a.u.)
9,TCACCGCGTAGCCGTAGCCGTTTCCATTAGCCCACTCCTCCGGAGTCACCTAGTGCAG,8230 fluorescence intensity (a.u.)
10,TTAGTTTTTTCATTCGTGTCCGAAAATCCCTTCCGACATCCGGAGTCACCTAGTGCAG,8590 fluorescence intensity (a.u.)
11,TTTTGGACTGCTATCACGTGATTATTGTTTATTTTGTTATCGGAGTCACCTAGTGCAG,8240 fluorescence intensity (a.u.)
12,AGTTTTTTTTCATCTGGGTCTTCTCATCTGATTTAGAATACGGAGTCACCTAGTGCAG,9050 fluorescence intensity (a.u.)
13,TATTAATCACCCAAGTCGATCCATAGTTCCATACATGCTACGGAGTCACCTAGTGCAG,8650 fluorescence intensity (a.u.)
14,ATTTGATTTCTATCAACCAACACCTATTTTTACACTTTTTCGGAGTCACCTAGTGCAG,8040 fluorescence intensity (a.u.)
15,GATTCATCTTGCCCTCAAAGTTTCCTGCTTTGTTTGATCACGGAGTCACCTAGTGCAG,9520 fluorescence intensity (a.u.)
16,AACGGAGACTAACACCAATGATCACCTGTGCACAGTTCCACGGAGTCACCTAGTGCAG,8640 fluorescence intensity (a.u.)
17,TTATATATTTGTCCTTGTAAAATTAACGGGTTGTTTGTCTCGGAGTCACCTAGTGCAG,9980 fluorescence intensity (a.u.)
18,CTAGTTTATTTTTCAGATTCTACAGTTATATATTCTCATCCGGAGTCACCTAGTGCAG,8120 fluorescence intensity (a.u.)
19,TCTTGGCATCCTATGTTAGTTTGAAGGTATTTTATTTTCACGGAGTCACCTAGTGCAG,8400 fluorescence intensity (a.u.)
20,TTCTCTTTTATCTGTTTGCTTCCTATAAATTCTACGCGATCGGAGTCACCTAGTGCAG,8480 fluorescence intensity (a.u.)
21,GCCACGATTTGGGAGACCCATTTTCTTCTTTTATTTCTTTCGGAGTCACCTAGTGCAG,8760 fluorescence intensity (a.u.)
